Results published in article PMC10518010, “The leaderless communication peptide (LCP) class of quorum-sensing peptides is broadly distributed among Firmicutes” (Nature Communications, 2023).

Test system: RopBss (Streptococcus salivarius DS85_40B)
Assay: EMSA
Conditions: LCPss peptide 1 uM, text does not separate apo and LCPss-bound; EMSA: 0.5 uM oligoduplex, 20 mM Tris pH 7.5, 0.8 M NaCl, 12% glycerol, 100 uM zinc sulfate, 15 min 37 C, gel at 4 C; recombinant protein; protein details: N-terminal His6 (pET-28a); label: none (ethidium bromide stain)

**Q.** Does “TGCCACCTCCATACTATGTAACATATTTGTGACTATGATACAT (double strand) [LCPss promoter RopBss site, 43-bp oligoduplex (EMSA)]” bind?
**A.** Result: binds

Construct, isoform or probe ends are uncertain for at least one entry. At least one verdict was read from the data and is not stated in words by the source.
